Results on 54 compounds are retold here after PubChem BioAssay AID2685 (National Center for Advancing Translational Sciences (NCATS), 2010).

Some of the results follow. These are further read-outs of the screen, such as a control signal, another cell line or another target. No call is given for them. Compounds called inactive in the main read-out are mostly missing here. Words in brackets tell the shape of the fitted curve; partial curves, single points and poor fits give uncertain potencies.

This assay is described as follows: qHTS Assay for Lipid Storage Modulators in Drosophila S3 Cells.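 As to cell number change: cells counted by Cell Tracker Red CMTPX staining in the red channel.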 The following applies: BODIPY lipid droplet fluorescence, 18-24 h; for cell number change: measured here: cell count max response, cells fed with added oleic acid. In a few lines: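 Laser-scanning cytometry quantifies lipid droplet accumulation (500–530 nm total intensity; droplet/cell object ratio) in oleic acid-fed (400 uM added) Drosophila S3 cells treated with a concentration series. 20 uM Triacsin C defined 100% inhibition.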
For orientation: Quantitative high-throughput screening tests each substance at several concentrations.

The mark [1] stands for this setting: measured here: cell number channel AC50, cells fed with added oleic acid.
Where [2] appears, read: measured here: lipid fluorescence (Fed channel) AC50, cells fed with added oleic acid.

As to `COc1ccccc1C(=O)NC(=O)COC(=O)CN1C(=O)NC(C)(C)C1=O`, the cell number change came out at 21.3%.

Consider `CCC(=O)NC1(C(F)(F)F)C(=O)NC(C)=C1C#N` (stereo not given), for which the cell number change is -42%. For the same compound, the AC50 (commonly the concentration giving half of the maximal activity seen) under setting [1] was 29.1 µM [falling, single point]. In addition, under setting [2], the AC50 was 29.1 µM [falling, single point].

Regarding `Cc1ccc2cccc(NC(=S)NC(=O)c3ccnn3C)c2n1`, the cell number change was -54.5%. Further, the AC50 under setting [1] is 14.6 µM [falling, single point]. Also, under setting [2], the AC50 is 14.6 µM [falling, partial curve].

In the case of `COc1ccc(-n2c(C)cc(C(=O)CN3C(=O)NC4(CCCc5sccc54)C3=O)c2C)cc1` (stereo not given), the cell number change is 10%. Moreover, under setting [2], the AC50 was 0.82 µM [rising, partial curve, poor fit].

`CN(Cc1ccccc1)c1nc2c(c(=O)[nH]c(=O)n2C)n1CCSc1nc2ccccc2[nH]1`: the cell number change was -9.85%. Moreover, the AC50 under setting [2] was 1.16 µM [rising, full curve].

For `Cc1cc(OCC(=O)OCC(=O)N2CCc3ccccc3C2)ccc1Cl`, the cell number change was -22.1%. Moreover, the half-maximal activity concentration (AC50) under setting [2] was 0.291 µM [falling, full curve].

As to `CCN(CC)CCCn1c(C)cc2c(c1=O)C(c1cc(OC)c(OC)cc1OC)C(C#N)=C(N)O2` (stereo not given), the cell number change amounted to 0.689%.

As for `C=CCn1c(SCC(=O)c2ccc(CNC(C)=O)o2)nc2ccccc2c1=O`, the cell number change was found to be 19.6%. Further, the AC50 under setting [1] was 0.731 µM [rising, partial curve, poor fit]. The AC50 under setting [2] was 2.06 µM [rising, partial curve].

As to `CCOc1ccc2nc(SCC(=O)Nc3cccc(S(=O)(=O)NC4=NCCCCC4)c3)[nH]c2c1`, the cell number change turned out to be 9.56%. Under setting [2], the AC50 is 0.651 µM [rising, partial curve, poor fit].

Take `COCCNC(=O)c1cccc(OC2CCN(Cc3ccc(C(=O)OC)cc3)CC2)c1`: the cell number change is -6.04%. Under setting [2], the AC50 is 29.1 µM [rising, single point].

Take `CCCN(C(=O)c1cc(Cl)nc2ccccc12)C1CCS(=O)(=O)C1` (stereo not given): the cell number change was -2.81%.

As to `CCCN(CC(=O)Nc1ccccc1C)C(=O)c1ccc(N2CCCC2)c([N+](=O)[O-])c1`, the cell number change is -3.06%. Further, the AC50 under setting [1] was 2.06 µM [falling, partial curve]. For the same compound, under setting [2], the AC50 was 2.06 µM [falling, partial curve].

`CSc1ccc(/C=C(/NC(=O)c2ccco2)C(=O)N2CCCCCC2)cc1`: the cell number change is -18.3%.

In the case of `CCCCOc1c(Br)cc(/C=C2\N=C(C)OC2=O)cc1OCC`, the cell number change is 12.9%.

Regarding `CCCCN(C(=O)c1cccc(S(=O)(=O)N2CCCC2)c1)c1c(N)n(CCC)c(=O)[nH]c1=O`, the cell number change worked out at 26.3%. Besides, under setting [2], the AC50 is 0.13 µM [rising, full curve].

Consider `NS(=O)(=O)c1ccc(NC(=S)NNC(=O)c2ccc(Br)o2)cc1`, for which the cell number change came to 12.4%.

Turning to `c1ccc(CCNc2nc3ccccc3s2)cc1`, the cell number change is -46.9%. Moreover, under setting [1], the AC50 was 18.4 µM [falling, single point]. Moreover, the AC50 under setting [2] is 29.1 µM [falling, single point].

`Cc1ccc2c(c1)c(/C=C/c1cc[n+](C)cc1)c(C)n2C`: the cell number change is -90.1%. Moreover, under setting [1], the AC50 is 3.66 µM [falling, full curve]. Under setting [2], the AC50 was 0.731 µM [falling, full curve].

As for `Cc1ccccc1-n1nc(C)c2c(C(=O)NN)cc(-c3ccncc3)nc21`, the cell number change came to 40.1%. The AC50 under setting [1] is 6.51 µM [rising, partial curve, poor fit]. Moreover, the AC50 under setting [2] was 1.84 µM [rising, full curve, poor fit].

Consider `CCOc1ccccc1OCCCC(=O)Nc1cccc(S(=O)(=O)N2CCOCC2)c1`, for which the cell number change is -17%. Moreover, the AC50 under setting [2] was 0.461 µM [falling, partial curve, poor fit].

For `CCN[C@H]1C[C@H](C)S(=O)(=O)c2sc(S(N)(=O)=O)cc21`, the cell number change was -34.6%. In addition, the AC50 under setting [1] was 0.164 µM [falling, full curve]. For the same compound, the AC50 under setting [2] is 6.51 µM [falling, full curve].

Take `CCOC(=O)C1CCCN(C(=O)c2cc3c(=O)n4ccccc4nc3s2)C1` (stereo not given): the cell number change was -23.2%. In addition, under setting [2], the concentration at half-maximal activity (AC50) is 2.59 µM [falling, full curve].

Consider `Cc1ccc(C(=O)N(CC(=O)NC2CCCC2)c2ccc3c(c2)OCCO3)s1`, for which the cell number change came out at 24.7%. Under setting [1], the AC50 was 0.092 µM [rising, full curve, poor fit]. Moreover, the AC50 under setting [2] was 0.13 µM [rising, partial curve, poor fit].

For the compound `Cc1ccc(CCN2CC(C(=O)NCCC(C)C)CC2=O)cc1` (stereo not given), the cell number change was -27.2%. The AC50 under setting [2] is 32.6 µM [falling, single point].

Regarding `Cc1ccc(S(=O)(=O)N2CCCCC2)cc1NS(=O)(=O)c1cccc(C(=O)O)c1`, the cell number change came to 30.4%. Further, the AC50 under setting [1] is 16.4 µM [rising, single point]. Besides, the AC50 under setting [2] was 1.3 µM [falling, partial curve].

Regarding `CC(=O)Nc1ccc(S(=O)(=O)Nc2nc3ccccc3nc2-n2ccc(=NC(=O)c3ccc(F)cc3)cc2)cc1`, the AC50 under setting [1] was 0.58 µM [rising, single point].

Turning to `CCOC(=O)c1ccsc1NC(=O)CCS(=O)(=O)c1ccccc1`, the cell number change is -42.1%. The AC50 under setting [1] was 14.6 µM [falling, single point]. Under setting [2], the AC50 was 29.1 µM [falling, single point].

In the case of `CC(C)COP(=O)(c1ccc(N(C)C)cc1)C(O)c1ccccc1F` (stereo not given), the cell number change was 30.3%. Moreover, under setting [2], the AC50 is 6.51 µM [rising, full curve].

With `Cc1ccnc(N2C(=O)CSC2c2ccc(Cl)cc2)c1` (stereo not given), the cell number change is 2.22%. Further, the AC50 under setting [1] is 6.51 µM [rising, single point].

Turning to `COc1ccc(Cc2nnc(Nc3ccc(Cl)cc3)[nH]c2=O)cc1`, the cell number change is 20%. The AC50 under setting [1] was 0.058 µM [rising, full curve, poor fit]. For the same compound, under setting [2], the AC50 is 0.82 µM [rising, full curve, poor fit].

With `CNC(=O)CSCCn1c(SCC(=O)NC)nc2ccccc2c1=O`, the cell number change came to 3.01%.

Turning to `CC(=O)c1cccc(NC(=O)c2ccc(NC(=O)CC3SC(N4CCCCC4)=NC3=O)cc2)c1` (stereo not given), the cell number change amounted to 2.47%.

Turning to `CCN(C(=O)COC(=O)/C=C/c1ccccc1Cl)c1c(N)n(Cc2ccccc2)c(=O)[nH]c1=O`, the cell number change is 111%. The AC50 under setting [1] was 16.4 µM [rising, single point].

`COc1ccc2nc(C3CCCCC3)nc(C3CCCCC3)c2c1`: the cell number change was 3.83%. In addition, the AC50 under setting [2] was 0.731 µM [rising, full curve, poor fit].

In the case of `CCOC(=O)c1cc(=O)cc(C(=O)OCC)o1`, the cell number change was -33.8%. For the same compound, the AC50 under setting [1] is 6.51 µM [falling, partial curve]. Under setting [2], the AC50 is 6.51 µM [falling, partial curve].

For `Cc1ccc(S(=O)(=O)NC2=NCN(CCN3CCOCC3)CN2)cc1`, the cell number change was -13%. Moreover, the AC50 under setting [2] is 2.59 µM [falling, partial curve, poor fit].

As for `O=C(OCC(=O)N1CCN(c2ccccc2)CC1)c1ccc2ncsc2c1`, the cell number change is -1.44%. Also, under setting [2], the AC50 was 4.61 µM [rising, single point].

In the case of `CC(C(=O)Nc1ccc(F)cc1Cl)N1CCN(S(=O)(=O)c2cccs2)CC1` (stereo not given), the cell number change was 34.8%. Also, under setting [1], the AC50 is 23.1 µM [rising, single point]. Moreover, the AC50 under setting [2] was 9.2 µM [rising, partial curve, poor fit].

With `NC(=O)C1CCN(C(=O)CSc2ncccn2)CC1`, the cell number change was determined as 13.7%. For the same compound, under setting [1], the AC50 is 0.326 µM [rising, full curve, poor fit].

Take `Cn1nnnc1SCC(=O)N(C1CCCCC1)C1CCS(=O)(=O)C1` (stereo not given): the cell number change is -8.29%.

On to `CCC1(c2ccccc2)ON(c2c(Br)cccc2Br)C1=O` (stereo not given), for which the cell number change is -53.7%. Under setting [1], the AC50 was 13 µM [falling, partial curve]. Besides, under setting [2], the AC50 was 11.6 µM [falling, partial curve].

Consider `Nc1nnc(SCC(=O)Nc2nccs2)s1`, for which the cell number change is -19.4%. Further, the AC50 under setting [2] was 29.1 µM [rising, partial curve, poor fit].

Regarding `O=C(Cn1c(=O)n(Cc2ccco2)c(=O)c2c3c(sc21)CCCC3)Nc1ccccc1`, the AC50 under setting [1] is 0.231 µM [rising, full curve, poor fit] and the AC50 under setting [2] was 0.58 µM [rising, single point].

In the case of `CN(c1ccccc1)c1nc(N)c([N+](=O)[O-])c(NCc2ccccc2)n1`, the cell number change came to 14.2%. Further, the AC50 under setting [1] was 0.731 µM [rising, full curve, poor fit]. Under setting [2], the AC50 is 0.092 µM [rising, full curve, poor fit].

Take `O=C(Nc1nnc(SCc2cccnc2)s1)C1CC(=O)N(c2ccc(F)cc2)C1` (stereo not given): the cell number change was 15%. Moreover, the AC50 under setting [2] was 18.4 µM [rising, single point].

For the compound `O=c1c(-c2ccc(O)cc2)coc2c(C3O[C@H](CO)[C@@H](O)[C@H](O)[C@H]3O)c(O)ccc12` (stereo not given in full), the cell number change was -29.3%. Besides, the AC50 under setting [1] was 0.00517 µM [falling, full curve, poor fit]. Moreover, under setting [2], the AC50 was 7.31 µM [falling, partial curve, poor fit].

With `COc1cc(C(=O)NCC(=O)NCCCSc2ccccc2)cc(OC)c1OC`, the cell number change was 1.69%. The AC50 under setting [2] was 0.00461 µM [rising, full curve, poor fit].

Consider `O=C(/C=C/c1ccccc1)N1CCN(c2cccc(Cl)n2)CC1`, for which the cell number change is 18.8%. For the same compound, the AC50 under setting [2] is 29.1 µM [rising, single point].

`O=C(Cc1cccc2ccccc12)Nc1ccc(O)cc1C(=O)O`: the cell number change was 4.97%. Besides, under setting [2], the AC50 is 0.651 µM [rising, partial curve, poor fit].

Regarding `Oc1ccc(-c2csc(Nc3ncccn3)n2)c(O)c1`, the cell number change is -14.3%. For the same compound, the AC50 under setting [2] was 14.6 µM [falling, single point].

As to `COc1ccc(OC)c(-n2nnnc2SCC(=O)NCCc2ccccc2)c1`, the cell number change was -7.08%. For the same compound, the AC50 under setting [1] is 0.731 µM [falling, single point]. Further, under setting [2], the AC50 is 29.1 µM [rising, single point].

As to `Cc1nn(C)c(C)c1S(=O)(=O)N1CCCC(C(=O)N2CCN(c3ccccc3)CC2)C1` (stereo not given), the cell number change was -34.8%. The half-maximal activity concentration (AC50) under setting [1] was 8.2 µM [falling, full curve, poor fit]. Moreover, under setting [2], the AC50 is 0.00411 µM [rising, full curve, poor fit].

Regarding `COCCn1c(=O)[nH]c(=O)c2c1nc(-c1cc(Br)c3c(c1)OCO3)n2Cc1ccccc1`, the cell number change was determined as 21.8%.

As for `CC(C)CC1Nc2ncnc(N3CCCCC3)c2N(Cc2ccccc2)C1=O` (stereo not given), the cell number change was -10.5%.
